Our source for the binding values is patent publication US20050215770A1.

B1: NGE2014 (scFv)
scFv: QVQLVQSGGVVVQPGGSLRLSCAASGFTFDDYAMHWVRQAPGKGLEWVSLISWDGGSTYYADSVKGRFTISRDNSKNSLYLQMNSLRAEDTALYYCAKDLNYDFWSSSGMDVWGKGTLVTVSSGGGGSGGGGSGGGGSQSVLTQPASVSGSPGQSITISCTGTSSDVGGYNYVSWYQQHPGKAPKLMIYEGSKRPSGVSNRFSGSKSGNTASLTISGLQAEDEADYYCSSYTSSSTLVFGGGTKLTVLG
B2: NGE2108 (scFv)
scFv: B1 scFv with Q6E, V10G, V11L, A24T, S107G, S108T, S233T, S234R, L237R
B3: NGE2433 (scFv)
scFv: B1 scFv with S107G, S108L, K115Q, S233T, S234R, L237R
B4: NGE2527 (scFv)
scFv: B1 scFv with V11L, K98T, S107G, G109S, L118M, T163A, S233T, S234R, L237R
B5: NGE2445 (scFv)
scFv: B1 scFv with Q1E, S107G, S108L, K115Q, G217E, S233T, S234R, L237R
B6: NGE2131 (scFv)
scFv: QVTLKESGPGLVKPSETLSLTCTVSGGSISSSSYYWGWIRQPPGKGLEWIGSIYYSGNTYDNPSLKSRLTMSVDTSRNQFSLKLSSVTAADTAVYYCARQRYNSAWFPYYFDLWGRGTLVTVSSGGGGSGGGGSGGGGSDIQMTQSPSTLSASIGDRVTITCRASEGIYHWLAWYQQKPGKAPKLLIYKASSLASGAPSRFSGSGSGTDFTLTISSLQPDDFATYYCQRYSNYPLTFGGGTKLEIKR
B7: NGE2506 (scFv)
scFv: EVQLVESGGGVVQPGRSLRLSCAASGFTFRSYGMHWVRQAPGKGLEWVAGISYDGSNKYYADSVKGRFTISRDNSKNTLYLQMNSLRAEDTAMYYCARDQSVYFGDLAWYFDLWGRGTLVTVSSGGGGSGGGGSGGGGSQSVLTQPPSVSAAPGQKVTISCSGSTSNIGNNYVSWYQQHPGKAPKLMIYDVSKRPSGVPDRFSGSKSGNSASLDISGLQSEDEADYYCAAWDDSLSEFLFGTGTKLTVLG
B8: NGE2446 (scFv)
scFv: QVQLQQSGPGLVRPSETLSLTCAVYGESLTGYYWSWIRQAPGQGLEWIGEINHSETTNYNPSLKSRLTISVDTSKNQFSLKLTSVTAADTAVYYCARGGTLLGYWGRGTLVTVSSGGGGSGGGGSGGGGSSELTQDPAVSVALGQTVRITCQGDSLRSYYASWYQQKPGQAPVLVIYGKNNRPSGIPDRFSGSSSGNTASLTITGAQAEDEADYYCNSRDSSGNHVVFGGGTKLTVLG
B9: NGE2001 (scFv)
scFv: EVQLVQSGGVVVQPGGSLRLSCAASGFTFDDYAMHWVRQAPGKGLEWVSLISWDGGSTYYADSVKGRFTISRDNSKNSLYLQMNSLRAEDTALYYCAKDLNYDFWSGSGMDVWGQGTLVTVSSGGGGSGGGGSGGGGSDVVMTQSPSSLSASLGDRVTITCRASQDITNDLAWYQQKPGKAPKLLIYGASTLQYGVPTRFSGSGSGTNFSLTISSLQPEDFATYYCQQYNSYPLTFGGGTKVEIKR
B10: NGE2435 (scFv)
scFv: QVQLQESGPGLVKPSETLSLTCVVSGGSISSSNWWSWVRQPPRKGLEWIGEIYHSGSPNYNPSLKSRVTISVDKSKNQFSLKLSSVTPADTAVYYCARQWEGIPSWGKGTLVTVSSGGGGSGGGGSGGGGSSELTQDPAVSVALGQTVRITCQGDSLRSYYASWYQQKPGQAPVLVIYGKNNRPSGIPDRFSGSSSGNTASLTITGAQAEDEADYYCNSWDSSGNHVVFGGGTKLTVLG
B11: NGE2439 (scFv)
scFv: EVQLVESGAEVKEPGASVKVSCKASGYTFTGYYMHWVRQAPGQGLEWMGWINPNSGDTHYAQKFQGRVTMTRDTSVSTAYMELSSLRSEDTAVYYCARGRSRYDFWSGYYGGDYDYYYIDVWGQGTTVTVSSGGGGSGGGGSGGGGSSELTQDPAVSVALGQTVRITCQGDSLRSYYASWYQQKPGQAPVLVIYGKDNRPSGIPDRFSGSSSGNTASLTITGAQAEDEADYYCNSRDSSGNHVVFGGGTKLTVLG
B12: NGE2458 (scFv)
scFv: QVQLQQSGAEVKKPGSSVTVSCKASGGTFTSYAINWVRQAPGQGLEWMGRTIPDLGIADYAQKFQGRVSITAHKFTNTAYMELSSLKSDDTAVYYCARAPVLMAPGGGMDVWGKGTLVTVSSGGGGSGGGGSGGGGSSELTQDPAVSVALGQTVRITCQGDSLKSYYASWYQQKPGQAPVLVIYGKNNRPSGIPDRFSGSSSGNTASLTITGAQAEDEADYYCNSRDSSGNHVVFGGGTKLTVLG
B13: NGE2061 (scFv)
scFv: QVQLQQSGPGLVKPSQTLSLTCAISGDSVSSNSAAWNWIRQSPSRGLEWLGRTYYRSQWHNDFAPFVQSRIAVNPDTSKNQFSLHLKFVTSEDTAVYYCARDPPDDQGFDIWGRTMVTVSSGGGGSGGGGSGGGGSDVVMTQSPSSLSASVGDRVAITCRASQGISNYLAWYQQKPGKAPKLLIYKASTLESGVPSRFSGSGSGTEFTLTISSLQPDDFATYYCQQYSNYPLTFGGGTKLEIKR
B14: NGE2072 (scFv)
scFv: QMQLVQSGGGVVQPGRSLRLSCAASGFTFSSYGMHWVRQAPGKGLEWVATIWYDGTKYYSDSVKGRFTISRDNSKNTLYLEMNSLRGEDTAVYYCVRTSTIVGAKSFDYWGRGTLVTVSSGGGGSGGGGSGGGGSQSVLTQPASVSGSPGQSITISCTGTSSDVGGYNYVSWYQQHPGKAPKLMIYEGSKRPSGVSNRFSGSKSGNTASLTISGLQAEDEADYYCSSYTTRSTRVFGGGTKLTVLG
B15: NGE2258 (scFv)
scFv: QMQLVQSGGGLVKSGGSLRLSCAASGFTFSDYYMSWVRQAPGKGLEWISYISSSGSIIYYADSVRGRFTISRDNADNSLYLHMNSLRADDTAVYYCARDPQGYTATRDSWFDPWGQGTMVTVSSGGGGSGGGGSGGGGSQSVLTQPASVSGSPGRSITISCTGTSSDVGGYNYVSWYQQHPGKAPKLMIYEGSKRPSGVSNRFSGSKSGNTASLTISGLQAEDEADYYCSSYTTRSTRVFGGGTKLTVLG
B16: NGE2164 (scFv)
scFv: EVQLVQSGGGLLQPGRSLRLSCAASGFTFSSYSMNWVRQAPGKGPEWVSAISGSGGSTYYADSVKGRFTISRDNSKNTLYLQMNSLRAEDTAVYYCAKASPATLEWLFPYYYYMDAWGRGTLVTVSSGGGGSGGGGSGGGGSDIVMTQSPSTLSASVGDRVTITCRASQGISSWLAWYQQRPGRAPKVLIYKASTLESGVPSRFSGSGSGTDFTLTISSLQPEDFATYYCQQSYSTPWTFGQGTKLEIKR
B17: NGE2447 (scFv)
scFv: B16 scFv with L12V, R16G, A116V, R119Q, L122T, R181K

Positions count from the first letter of the chain named. These are yes or no findings as the source states them, for the method shown. Some entries that bind do so weakly or less than the wild type. Where a sequence is shown, tags or fusion partners need not be part of it.

The first assay concerns the target T1, Recombinant soluble human Flag-tagged NogoR (amino acids 1 to 309 of SEQ ID NO:2) (human) (UniProt Q9BZR6).
T1 sequence (chain, biotinylated with Sulfo-NHS-LC-Biotin): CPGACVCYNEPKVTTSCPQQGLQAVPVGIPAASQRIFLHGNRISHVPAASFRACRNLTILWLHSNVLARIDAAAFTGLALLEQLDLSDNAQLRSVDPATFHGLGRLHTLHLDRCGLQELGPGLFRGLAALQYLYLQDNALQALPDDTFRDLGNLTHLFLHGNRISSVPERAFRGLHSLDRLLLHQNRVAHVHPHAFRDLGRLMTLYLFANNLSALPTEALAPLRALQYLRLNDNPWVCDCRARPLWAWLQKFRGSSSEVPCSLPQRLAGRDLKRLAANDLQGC
In words: ECL phage screen (Example 1).
As to B1, the binding entry is on record as “binds”.

With B2, the binding entry is on record as “binds”.

As for B3, the binding entry is “binds”.

B4: the binding result is “binds”.

With B5, the binding result is “binds”.

For the molecule B6, the binding result was “binds”.

On to B7, for which the binding entry is “binds”.

On to B8, for which the binding result is recorded as “binds”.

On to B9, for which the binding entry was “binds”.

For the molecule B10, the binding entry is “binds”.

On to B11, for which the binding entry is reported as “binds”.

For B12, the binding entry is listed as “binds”.

With B13, the binding result was “binds”.

Regarding B14, the binding result is reported as “binds”.

Consider B15, for which the binding entry was “binds”.

In the case of B16, the binding entry is “binds”.

In the case of B17, the binding result is reported as “binds”.

A further assay addresses T1, Recombinant soluble human Flag-tagged NogoR (amino acids 1 to 309 of SEQ ID NO:2) (human). In words: ECL phage screen on biotin-rHuNOGOSR-Flag (positive: 5-fold above background).
Regarding B1, the binding entry is listed as “binds”.

Consider B2, for which the binding entry is “binds”.

Regarding B3, the binding result is given as “binds”.

Turning to B4, the binding result is “binds”.

As for B5, the binding result was “binds”.

Regarding B6, the binding result is “binds”.

For the molecule B7, the binding entry is recorded as “binds”.

B8: the binding result was “binds”.

With B9, the binding result was “binds”.

Take B10: the binding entry is given as “binds”.

As to B11, the binding entry is “binds”.

Consider B12, for which the binding result is given as “binds”.

In the case of B13, the binding result was “binds”.

B14: the binding entry is “binds”.

With B15, the binding entry is given as “binds”.

Regarding B16, the binding entry was “binds”.

As to B17, the binding entry is on record as “binds”.
